Data published in patent publication US8461328B2, “Tricyclic heterocyclic compounds, compositions and methods of use thereof” (Genentech, Inc., priority 2010, dated 2013).
Some of these results come from one statement about several compounds together.

By UniProt entry, the sequences of proteins in these tests, tags left out. Residues count along the entry.
UniProt P23458, 852-1154: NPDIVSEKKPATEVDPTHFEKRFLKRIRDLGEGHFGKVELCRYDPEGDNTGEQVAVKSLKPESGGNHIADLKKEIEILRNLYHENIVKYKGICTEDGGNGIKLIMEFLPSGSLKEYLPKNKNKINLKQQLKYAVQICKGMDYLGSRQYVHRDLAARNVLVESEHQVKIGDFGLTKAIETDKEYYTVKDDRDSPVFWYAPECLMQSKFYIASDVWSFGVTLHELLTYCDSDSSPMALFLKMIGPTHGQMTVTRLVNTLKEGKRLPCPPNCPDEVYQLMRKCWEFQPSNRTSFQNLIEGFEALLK

Target: T1, human JAK1 kinase domain (Homo sapiens, UniProt P23458)
T1 construct: made in house; host or cells: SF9 insect cells (baculovirus)
Assay: JAK1 inhibition assay (Example B), Caliper LabChip peptide phosphorylation
Type: biochemical
Details: 1.5 nM JAK1, 25 μM ATP, Morrison tight binding model; read-out: Ki in a JAK1 kinase activity assay (Example B)

CC(C)N1CC(c2nc3cnc4[nH]ccc4c3n2C2CCN(CCC#N)CC2)CC1=O (racemic) [Example 388, 3-{4-[2-(1-Isopropyl-5-oxo-pyrrolidin-3-yl)-6H-1,3,5,6-tetraaza-as-indacen-1-yl]-piperidin-1-yl}-propionitrile]
Ki: < 500 nM

CC(=O)N1CCC(c2nc3cnc4[nH]ccc4c3n2C2CCN(CCC#N)CC2)C1 (racemic) [Example 390, 3-{4-[2-(1-Acetyl-pyrrolidin-3-yl)-6H-1,3,5,6-tetraaza-as-indacen-1-yl]-piperidin-1-yl}-propionitrile]
Ki: < 500 nM

CC(CC#N)N1CCC(n2c(C3CCOC3)nc3cnc4[nH]ccc4c32)CC1 (racemic) [Example 391, 3-{4-[2-(Tetrahydro-furan-3-yl)-6H-1,3,5,6-tetraaza-as-indacen-1-yl]-piperidin-1-yl}-butyronitrile]
Ki: < 500 nM

CC(CC#N)N1CCC(n2c(C3CCC3)nc3cnc4[nH]ccc4c32)CC1 (racemic) [Example 392, 3-[4-(2-Cyclobutyl-6H-1,3,5,6-tetraaza-as-indacen-1-yl)-piperidin-1-yl]-butyronitrile]
Ki: < 500 nM

CC(CC#N)N1CCC(n2c(C3CCOCC3)nc3cnc4[nH]ccc4c32)CC1 (racemic) [Example 393, 3-{4-[2-(Tetrahydro-pyran-4-yl)-6H-1,3,5,6-tetraaza-as-indacen-1-yl]-piperidin-1-yl}-butyronitrile]
Ki: < 500 nM

CC(CC#N)N1CCC(n2c(CCn3cncn3)nc3cnc4[nH]ccc4c32)CC1 (racemic) [Example 394, 3-{4-[2-(2-[1,2,4]Triazol-1-yl-ethyl)-6H-1,3,5,6-tetraaza-as-indacen-1-yl]-piperidin-1-yl}-butyronitrile]
Ki: < 500 nM

CC(CC#N)N1CCC(n2c(C3CC(=O)N(C)C3)nc3cnc4[nH]ccc4c32)CC1 (racemic) [Example 395, 3-{4-[2-(1-Methyl-5-oxo-pyrrolidin-3-yl)-6H-1,3,5,6-tetraaza-as-indacen-1-yl]-piperidin-1-yl}-butyronitrile]
Ki: < 500 nM

CC(CC#N)N1CCC(n2c(CS(C)(=O)=O)nc3cnc4[nH]ccc4c32)CC1 (racemic) [Example 396, 3-[4-(2-Methanesulfonylmethyl-6H-1,3,5,6-tetraaza-as-indacen-1-yl)-piperidin-1-yl]-butyronitrile]
Ki: < 500 nM

CC(=O)N1CCC(c2nc3cnc4[nH]ccc4c3n2C2CCN(C(C)CC#N)CC2)C1 (racemic) [Example 397, 3-{4-[2-(1-Acetyl-pyrrolidin-3-yl)-6H-1,3,5,6-tetraaza-as-indacen-1-yl]-piperidin-1-yl}-butyronitrile]
Ki: < 500 nM

CC(=O)N(C)CCc1nc2cnc3[nH]ccc3c2n1C1CCN(C(C)CC#N)CC1 (racemic) [Example 398, N-(2-{1-[1-(2-Cyano-1-methyl-ethyl)-piperidin-4-yl]-1,6-dihydro-1,3,5,6-tetraaza-as-indacen-2-yl}-ethyl)-N-methyl-acetamide]
Ki: < 500 nM

CC(CC#N)N1CCC(n2c(CN3CCCC3=O)nc3cnc4[nH]ccc4c32)CC1 (racemic) [Example 399, 3-{4-[2-(2-Oxo-pyrrolidin-1-ylmethyl)-6H-1,3,5,6-tetraaza-as-indacen-1-yl]-piperidin-1-yl}-butyronitrile]
Ki: < 500 nM

CC(=O)N1CCC(c2nc3cnc4[nH]ccc4c3n2C2CCN(C(C)CC#N)CC2)CC1 (racemic) [Example 400, 3-{4-[2-(1-Acetyl-piperidin-4-yl)-6H-1,3,5,6-tetraaza-as-indacen-1-yl]-piperidin-1-yl}-butyronitrile]
Ki: < 500 nM

CC(CC#N)N1CCC(n2c(CC3CC3)nc3cnc4[nH]ccc4c32)CC1 (racemic) [Example 401, 3-[4-(2-Cyclopropylmethyl-6H-1,3,5,6-tetraaza-as-indacen-1-yl)-piperidin-1-yl]-butyronitrile]
Ki: < 500 nM

N#CCCN1CCC(n2c(C3CC3(F)F)nc3cnc4[nH]ccc4c32)CC1 (racemic) [Example 404, 3-{4-[2-(2,2-Difluoro-cyclopropyl)-6H-1,3,5,6-tetraaza-as-indacen-1-yl]-piperidin-1-yl}-propionitrile]
Ki: < 500 nM

N#CCCN1CCC(n2c(CC3CCCOC3)nc3cnc4[nH]ccc4c32)CC1 (racemic) [Example 409, 3-{4-[2-(Tetrahydro-pyran-3-ylmethyl)-6H-1,3,5,6-tetraaza-as-indacen-1-yl]-piperidin-1-yl}-propionitrile]
Ki: < 500 nM

CCC(COC)n1c(C)nc2cnc3[nH]ccc3c21 (racemic) [Example 415, 1-(1-Methoxymethyl-propyl)-2-methyl-1,6-dihydro-1,3,5,6-tetraaza-as-indacene]
Ki: < 500 nM

Cc1nc2cnc3[nH]ccc3c2n1C(C)CCO (racemic) [Example 416, 3-(2-Methyl-6H-1,3,5,6-tetraaza-as-indacen-1-yl)-butan-1-ol]
Ki: < 500 nM

CCC(COC)n1cnc2cnc3[nH]ccc3c21 (racemic) [Example 419, 1-(1-Methoxymethyl-propyl)-1,6-dihydro-1,3,5,6-tetraaza-as-indacene]
Ki: < 500 nM

Cc1nc2cnc3[nH]ccc3c2n1C1CCN(Cc2ccccc2)CC1(F)F (racemic) [Example 428, 1-(1-Benzyl-3,3-difluoro-piperidin-4-yl)-2-methyl-1,6-dihydro-1,3,5,6-tetraaza-as-indacene]
Ki: < 500 nM

CC(C(=O)N1CCC(n2cnc3cnc4[nH]ccc4c32)CC1)N(C)C (racemic) [Example 438, 2-Dimethylamino-1-[4-(6H-1,3,5,6-tetraaza-as-indacen-1-yl)-piperidin-1-yl]-propan-1-one]
Ki: < 500 nM

CN1CCC(C(=O)N2CCC(n3cnc4cnc5[nH]ccc5c43)CC2)C1 (racemic) [Example 452, (1-Methyl-pyrrolidin-3-yl)-[4-(6H-1,3,5,6-tetraaza-as-indacen-1-yl)-piperidin-1-yl]-methanone]
Ki: < 500 nM

N#CCC(=O)N1CCCC(n2cnc3cnc4[nH]ccc4c32)CC1 (racemic) [Example 485, 3-Oxo-3-[4-(6H-1,3,5,6-tetraaza-as-indacen-1-yl)-azepan-1-yl]-propionitrile]
Ki: < 500 nM

Cc1nc2cnc3[nH]ccc3c2n1C1CCc2[nH]ncc2C1 (racemic) [Example 486, 2-Methyl-1-(4,5,6,7-tetrahydro-1H-indazol-5-yl)-1,6-dihydro-1,3,5,6-tetraaza-as-indacene]
Ki: < 500 nM

c1cncc(CN2CCCC(n3cnc4cnc5[nH]ccc5c43)CC2)c1 (racemic) [Example 487, 1-(1-Pyridin-3-ylmethyl-azepan-4-yl)-1,6-dihydro-1,3,5,6-tetraaza-as-indacene]
Ki: < 500 nM

Cc1nc2cnc3[nH]ccc3c2n1C1CCc2cn[nH]c2C1 (racemic) [Example 488]
Ki: < 500 nM

c1cc2c(ncc3ncn(C4CCCNCC4)c32)[nH]1 (racemic) [Example 489, 1-Azepan-4-yl-1,6-dihydro-1,3,5,6-tetraaza-as-indacene]
Ki: < 500 nM

c1cc2c(ncc3ncn(CC4CCNC4)c32)[nH]1 (racemic) [Example 490, 1-Pyrrolidin-3-ylmethyl-1,6-dihydro-1,3,5,6-tetraaza-as-indacene]
Ki: < 500 nM

CCC(C)S(=O)(=O)NCc1nc2cnc3[nH]ccc3c2n1C1CCN(CCC#N)CC1 (racemic) [Example 502, Butane-2-sulfonic acid {1-[1-(2-cyano-ethyl)-piperidin-4-yl]-1,6-dihydro-1,3,5,6-tetraaza-as-indacen-2-ylmethyl}-amide]
Ki: < 500 nM
